Experimental data taken from PMC2664966.

Sequences of proteins named here, by UniProt entry; tags and fusion partners are left off. A change or cut given only in a name is not applied to a line headed by its entry.
UniProt P28074: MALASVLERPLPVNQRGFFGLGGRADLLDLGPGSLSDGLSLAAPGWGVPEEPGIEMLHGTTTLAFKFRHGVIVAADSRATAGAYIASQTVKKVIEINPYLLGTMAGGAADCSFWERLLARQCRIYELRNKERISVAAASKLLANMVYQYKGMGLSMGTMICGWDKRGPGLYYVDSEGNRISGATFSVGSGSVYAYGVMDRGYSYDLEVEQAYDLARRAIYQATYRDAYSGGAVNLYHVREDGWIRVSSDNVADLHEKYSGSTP

Biological target: 20S proteasome β5 subunit (human) (UniProt P28074)
Assay: peptide or protein array; ProtoArray Human Protein Microarray v4.0 (Invitrogen, more than 8,000 human proteins immobilized) probed with Alexa Fluor 568-labelled HAMLET at 5 and 50 ng/µl in duplicate; hits by Z-score against a negative control array without HAMLET; both purified

- binding: binds
B1: Alexa Fluor 568-labeled HAMLET (protein, UniProt P00709 20-142)
chain: KQFTKCELSQLLKDIDGYGGIALPELICTMFHTSGYDTQAIVENNESTEYGLFQISNKLWCKSSQVPQSRNICDISCDKFLDDDITDDIMCAKKILDIKGIDYWLAHKALCTEKLEQWLCEKL
modifications: Alexa Fluor 568 conjugate (residues not stated)

These are yes or no findings as the source states them, for the method shown. Binding can be weak; no strength is given.
